Here are results for 1 substance from paper doi:10.1101/2025.08.20.671228.

The chains behind the UniProt entries cited, without tags or fusion partners.
UniProt Q18B12: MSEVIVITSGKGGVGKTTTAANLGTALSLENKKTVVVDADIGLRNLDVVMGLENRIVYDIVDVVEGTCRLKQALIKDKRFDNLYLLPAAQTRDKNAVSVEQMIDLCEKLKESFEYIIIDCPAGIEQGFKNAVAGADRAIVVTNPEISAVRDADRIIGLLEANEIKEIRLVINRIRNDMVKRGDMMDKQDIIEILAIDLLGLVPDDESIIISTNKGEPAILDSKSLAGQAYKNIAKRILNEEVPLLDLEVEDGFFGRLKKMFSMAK

Results are given in words; binding and its absence hold for the method and conditions named.

The experiment addresses MinD (CDR0987) fused to the T18 or T25 fragment of CyaA (Clostridioides difficile R20291) (UniProt Q18B12). As to the kind of experiment: two-hybrid; bacterial two-hybrid in E. coli BTH101: N- and C-terminal fusions to the T18 and T25 fragments of CyaA, spotted on LB-agar with X-gal and 0.5 mM IPTG, 24-36 h at 30 °C.

Regarding “MinD (CDR0987) fused to the T18 or T25 fragment of CyaA (from UniProt Q18B12 1-265)”, the binding result is “no binding”.
